Results taken from article PMC7826256.
Where cells or extracts were used, other partners may take part. For some of these results: No signal at the amounts used counts as a negative. At least one verdict was read from the data and is not stated in words by the source. The exact form of at least one protein or probe is not confirmed. For some of these results: Where a protein sequence is shown, tags need not be part of it. For some of these results: A weaker result is weaker than the reference pair of the same experiment.

The chains behind the UniProt entries cited, without tags or fusion partners. Where a name states a change or a piece, a line headed by the entry shows the natural chain unless it says otherwise. Residues count along the entry.
UniProt P51991: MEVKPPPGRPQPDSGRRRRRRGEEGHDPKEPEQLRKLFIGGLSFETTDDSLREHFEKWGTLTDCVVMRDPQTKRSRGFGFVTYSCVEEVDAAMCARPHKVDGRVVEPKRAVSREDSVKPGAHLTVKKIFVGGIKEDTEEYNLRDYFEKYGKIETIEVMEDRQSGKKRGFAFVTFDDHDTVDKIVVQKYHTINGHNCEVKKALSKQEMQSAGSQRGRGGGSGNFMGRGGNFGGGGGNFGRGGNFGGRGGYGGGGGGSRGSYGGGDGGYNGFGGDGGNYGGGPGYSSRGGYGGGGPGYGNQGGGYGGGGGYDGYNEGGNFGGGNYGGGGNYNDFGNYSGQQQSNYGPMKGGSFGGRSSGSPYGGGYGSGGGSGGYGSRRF
UniProt P13010, 2-732: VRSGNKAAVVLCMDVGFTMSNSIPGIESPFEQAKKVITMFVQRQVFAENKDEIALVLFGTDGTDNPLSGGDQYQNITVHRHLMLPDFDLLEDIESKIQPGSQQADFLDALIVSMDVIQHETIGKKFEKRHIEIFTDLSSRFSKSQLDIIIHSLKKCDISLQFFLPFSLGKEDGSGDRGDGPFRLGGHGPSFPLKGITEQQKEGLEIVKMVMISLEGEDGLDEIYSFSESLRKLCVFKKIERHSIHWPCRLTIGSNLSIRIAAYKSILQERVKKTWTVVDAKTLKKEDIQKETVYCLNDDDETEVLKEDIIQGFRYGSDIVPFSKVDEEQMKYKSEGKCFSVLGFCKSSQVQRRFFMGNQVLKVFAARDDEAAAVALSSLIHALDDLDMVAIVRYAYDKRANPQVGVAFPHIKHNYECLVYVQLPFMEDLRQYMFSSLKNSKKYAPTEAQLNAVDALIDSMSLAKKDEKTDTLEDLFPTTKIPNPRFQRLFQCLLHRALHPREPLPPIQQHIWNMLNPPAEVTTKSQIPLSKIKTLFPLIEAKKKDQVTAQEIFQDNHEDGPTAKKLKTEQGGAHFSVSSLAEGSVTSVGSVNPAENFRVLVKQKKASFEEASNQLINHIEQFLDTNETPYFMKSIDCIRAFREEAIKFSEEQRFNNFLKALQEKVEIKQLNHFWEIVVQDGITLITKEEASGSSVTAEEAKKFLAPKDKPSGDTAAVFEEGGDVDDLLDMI
UniProt P12956, 2-609: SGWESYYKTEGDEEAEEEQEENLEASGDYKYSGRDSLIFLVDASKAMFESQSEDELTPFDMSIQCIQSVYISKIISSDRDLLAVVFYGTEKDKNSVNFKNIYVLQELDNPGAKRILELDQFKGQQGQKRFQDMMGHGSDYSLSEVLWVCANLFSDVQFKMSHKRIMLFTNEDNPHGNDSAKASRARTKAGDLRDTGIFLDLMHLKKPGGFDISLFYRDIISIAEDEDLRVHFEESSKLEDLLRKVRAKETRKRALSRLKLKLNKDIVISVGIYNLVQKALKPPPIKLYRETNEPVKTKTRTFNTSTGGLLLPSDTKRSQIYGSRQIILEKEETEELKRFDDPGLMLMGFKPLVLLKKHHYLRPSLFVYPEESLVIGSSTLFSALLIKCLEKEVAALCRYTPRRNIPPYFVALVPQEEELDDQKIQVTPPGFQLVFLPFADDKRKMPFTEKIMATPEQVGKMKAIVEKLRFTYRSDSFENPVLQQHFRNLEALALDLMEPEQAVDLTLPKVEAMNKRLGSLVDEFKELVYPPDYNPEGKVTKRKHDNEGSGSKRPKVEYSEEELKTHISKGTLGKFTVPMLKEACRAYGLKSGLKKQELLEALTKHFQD
UniProt O00571, 2-662: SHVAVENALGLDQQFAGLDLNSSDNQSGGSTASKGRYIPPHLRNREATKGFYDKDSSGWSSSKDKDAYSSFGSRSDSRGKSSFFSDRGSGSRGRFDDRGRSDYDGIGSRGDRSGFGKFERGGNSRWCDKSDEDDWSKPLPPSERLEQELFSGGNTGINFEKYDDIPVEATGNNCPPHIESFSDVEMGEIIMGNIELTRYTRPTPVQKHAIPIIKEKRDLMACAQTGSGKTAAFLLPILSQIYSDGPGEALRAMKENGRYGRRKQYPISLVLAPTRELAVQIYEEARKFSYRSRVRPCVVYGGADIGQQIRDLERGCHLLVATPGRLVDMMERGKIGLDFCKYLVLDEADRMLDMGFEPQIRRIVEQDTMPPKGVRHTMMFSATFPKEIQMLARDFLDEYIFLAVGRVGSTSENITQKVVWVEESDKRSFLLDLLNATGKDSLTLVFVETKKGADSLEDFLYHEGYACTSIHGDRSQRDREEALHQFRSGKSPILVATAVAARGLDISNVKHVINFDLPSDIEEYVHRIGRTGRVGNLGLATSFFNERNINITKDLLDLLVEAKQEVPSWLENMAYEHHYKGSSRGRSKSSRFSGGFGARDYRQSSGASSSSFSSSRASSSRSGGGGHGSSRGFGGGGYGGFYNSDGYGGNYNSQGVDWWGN

Key:
Test in all cases: pull-down + LC-MS
Conditions in all cases: Oligos folded in 20 mM phosphate pH 7.4, 150 pmol on streptavidin beads, 25 ug 93T449 nuclear extract, 4 C, 2-3 h, protein in an extract
hnRNP A3 = hnRNP A3 (UniProt P51991)
hnRNP H3 = biological target: T1, hnRNP H3 (UniProt P31942)
T1 sequence (looked up, limits assumed): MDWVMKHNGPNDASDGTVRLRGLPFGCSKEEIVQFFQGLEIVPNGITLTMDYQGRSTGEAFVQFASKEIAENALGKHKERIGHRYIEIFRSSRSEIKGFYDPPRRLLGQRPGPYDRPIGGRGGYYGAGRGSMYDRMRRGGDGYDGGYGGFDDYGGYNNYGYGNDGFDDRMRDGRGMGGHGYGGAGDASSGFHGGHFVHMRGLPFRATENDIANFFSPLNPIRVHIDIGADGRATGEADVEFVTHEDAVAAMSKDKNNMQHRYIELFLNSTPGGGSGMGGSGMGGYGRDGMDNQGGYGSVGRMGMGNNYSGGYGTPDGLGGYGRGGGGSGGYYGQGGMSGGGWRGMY

EWS = biological target: T2, EWS (UniProt Q01844)
T2 sequence (looked up, limits assumed): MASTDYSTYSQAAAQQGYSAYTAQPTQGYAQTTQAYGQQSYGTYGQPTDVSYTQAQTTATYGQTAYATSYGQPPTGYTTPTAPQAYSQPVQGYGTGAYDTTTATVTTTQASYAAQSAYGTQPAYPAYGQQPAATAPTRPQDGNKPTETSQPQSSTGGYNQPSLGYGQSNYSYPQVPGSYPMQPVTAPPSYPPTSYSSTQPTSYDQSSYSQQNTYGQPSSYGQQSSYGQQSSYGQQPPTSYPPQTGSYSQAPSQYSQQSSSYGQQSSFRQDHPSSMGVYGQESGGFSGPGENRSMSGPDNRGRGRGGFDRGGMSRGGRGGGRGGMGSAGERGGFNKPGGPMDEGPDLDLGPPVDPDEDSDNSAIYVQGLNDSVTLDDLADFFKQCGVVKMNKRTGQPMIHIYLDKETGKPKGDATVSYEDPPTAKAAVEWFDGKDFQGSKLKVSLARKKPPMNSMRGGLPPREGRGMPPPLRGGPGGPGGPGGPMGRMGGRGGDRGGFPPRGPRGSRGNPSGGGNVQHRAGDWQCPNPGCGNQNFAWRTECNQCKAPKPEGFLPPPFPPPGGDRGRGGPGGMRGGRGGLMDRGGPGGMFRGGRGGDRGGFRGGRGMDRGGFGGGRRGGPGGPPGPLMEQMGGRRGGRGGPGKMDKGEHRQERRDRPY

XRCC5 (Ku80) = XRCC5 (Ku80) (UniProt P13010)
XRCC6 (Ku70) = XRCC6 (Ku70) (UniProt P12956)
DDX3X = DDX3X (UniProt O00571)
hnRNP F = biological target: T3, hnRNP F (UniProt P52597)
T3 sequence (looked up, limits assumed): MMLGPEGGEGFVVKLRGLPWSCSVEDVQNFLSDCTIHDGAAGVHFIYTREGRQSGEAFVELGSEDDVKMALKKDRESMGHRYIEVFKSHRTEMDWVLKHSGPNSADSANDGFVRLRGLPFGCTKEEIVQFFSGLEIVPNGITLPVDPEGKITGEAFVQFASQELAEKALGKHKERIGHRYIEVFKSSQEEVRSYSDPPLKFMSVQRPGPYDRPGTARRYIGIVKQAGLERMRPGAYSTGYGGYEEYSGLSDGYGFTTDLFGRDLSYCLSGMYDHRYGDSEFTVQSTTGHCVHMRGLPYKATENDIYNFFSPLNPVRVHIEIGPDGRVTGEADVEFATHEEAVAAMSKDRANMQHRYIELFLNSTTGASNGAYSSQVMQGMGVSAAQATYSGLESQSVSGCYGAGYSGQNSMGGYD

ACBL = test system: ACBL
hnRNP Q = biological target: T4, hnRNP Q (UniProt O60506)
T4 sequence (looked up, limits assumed): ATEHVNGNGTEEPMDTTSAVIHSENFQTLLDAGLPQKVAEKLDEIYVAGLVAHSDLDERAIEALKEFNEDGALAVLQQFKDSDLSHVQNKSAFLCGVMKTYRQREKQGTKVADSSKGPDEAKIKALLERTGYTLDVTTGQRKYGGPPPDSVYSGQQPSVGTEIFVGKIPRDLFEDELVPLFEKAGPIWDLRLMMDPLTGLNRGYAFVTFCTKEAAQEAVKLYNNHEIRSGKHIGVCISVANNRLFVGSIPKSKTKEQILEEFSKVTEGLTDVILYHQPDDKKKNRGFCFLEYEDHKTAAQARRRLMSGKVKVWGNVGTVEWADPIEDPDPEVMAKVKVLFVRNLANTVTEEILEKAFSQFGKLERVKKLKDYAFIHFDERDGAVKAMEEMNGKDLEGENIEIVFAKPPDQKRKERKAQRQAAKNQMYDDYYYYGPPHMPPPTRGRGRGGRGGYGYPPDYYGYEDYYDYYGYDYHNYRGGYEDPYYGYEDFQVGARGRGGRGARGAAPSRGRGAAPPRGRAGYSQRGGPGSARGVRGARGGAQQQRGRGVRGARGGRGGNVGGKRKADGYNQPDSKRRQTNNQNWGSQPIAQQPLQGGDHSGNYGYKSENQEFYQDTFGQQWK

[1] = Mascot score 57, label: 5' biotin (BtnTg), folded or branched DNA
[2] = not found on control, label: 5' biotin, single-stranded DNA
[3] = also found, target score at least double, label: 5' biotin, single-stranded DNA

Question: Does “AAAAACCCCAGTCCCGCCCAGGCCACGCCTCCCAAAAA [C-ss-biot]” bind (hnRNP A3; similar Mascot score as on Mdm2-G4, label: 5' biotin, single-stranded DNA)?
Answer: binds

Question: Does “TGGGGGCTCGGGGCGCGGGGCGCGGGGCATGGGGC [Mdm2-G4-biot]” bind (hnRNP H3; Mascot score 22, label: 5' biotin (BtnTg), folded or branched DNA)?
Answer: binds

Question: Does “TGGGGGCTCGGGGCGCGGGGCGCGGGGCATGGGGC [Mdm2-G4-biot]” bind (EWS; Mascot score 28, label: 5' biotin (BtnTg), folded or branched DNA)?
Answer: binds

Question: Does “TGGGGGCTCGGGGCGCGGGGCGCGGGGCATGGGGC [Mdm2-G4-biot]” bind (XRCC5 (Ku80); [1])?
Answer: binds

Question: Does “TGGGGGCTCGGGGCGCGGGGCGCGGGGCATGGGGC [Mdm2-G4-biot]” bind (XRCC6 (Ku70); Mascot score 89, label: 5' biotin (BtnTg), folded or branched DNA)?
Answer: binds

Question: Does “TGGGGGCTCGGGGCGCGGGGCGCGGGGCATGGGGC [Mdm2-G4-biot]” bind (DDX3X; Mascot score 29, label: 5' biotin (BtnTg), folded or branched DNA)?
Answer: binds

Question: Does “TGGGGGCTCGGGGCGCGGGGCGCGGGGCATGGGGC [Mdm2-G4-biot]” bind (hnRNP A3; Mascot score 125, label: 5' biotin (BtnTg), folded or branched DNA)?
Answer: binds

Question: Does “TGGGGGCTCGGGGCGCGGGGCGCGGGGCATGGGGC [Mdm2-G4-biot]” bind (hnRNP F; [1])?
Answer: binds

Question: Does “TGGGGGCTCGGGGCGCGGGGCGCGGGGCATGGGGC [Mdm2-G4-biot]” bind (ACBL; Mascot score 123, label: 5' biotin (BtnTg), folded or branched DNA)?
Answer: binds

Question: Does “TGGGGGCTCGGGGCGCGGGGCGCGGGGCATGGGGC [Mdm2-G4-biot]” bind (hnRNP Q; Mascot score 24, label: 5' biotin (BtnTg), folded or branched DNA)?
Answer: binds

Question: What does the source list for “TTTTTGGAGTCGTGTCGCGTGTCGAGCGTGTGTAGTGGTTTTT [G-ss-biot]”?
Answer: binding result (hnRNP H3; [2]): no binding; binding result (EWS; [2]): no binding; binding result (XRCC5 (Ku80); [3]): binds more weakly; binding result (XRCC6 (Ku70); [3]): binds more weakly; binding result (DDX3X; [2]): no binding; binding result (hnRNP A3; not listed as found, label: 5' biotin, single-stranded DNA): no binding; binding result (hnRNP F; [2]): no binding; binding result (ACBL; [2]): no binding; binding result (hnRNP Q; [3]): binds more weakly
